The results in this text go back to the supplement of paper PMC6690932.

Counter-ions that a name gives are not always drawn. ± gives the standard deviation of the averaged measurements. The list shows a part of the results. Many values rest on one well or one pass, so single values are uncertain.

The assay relates to HeLa. Kind of assay: lysosomal-METRIQ red/green fluorescence ratio relative to DMSO (ratio to DMSO); higher = higher lysosomal activity / lysosomal biogenesis. To be noted: 10 µM; 12 h.
With `Cc1ccc(-c2cn3c4c(sc3n2)CCCC4)cc1` [Pifithrin-a (cyclic)], the “lysosomal-METRIQ red/green fluorescence ratio” value is 1.08.

Turning to `Cc1ccc2nc(NCCN)c3ncc(C)n3c2c1`, the “lysosomal-METRIQ red/green fluorescence ratio” value was determined as 1.75.

`Cc1cc(Nc2cc(N3CCN(C)CC3)nc(/C=C/c3ccccc3)n2)n[nH]1`: the “lysosomal-METRIQ red/green fluorescence ratio” value was 0.818.

On to `CC(=O)O[C@H]1C(=O)[C@@]2(C)[C@H]([C@H](OC(=O)c3ccccc3)[C@]3(O)C[C@H](OC(=O)[C@H](O)[C@@H](NC(=O)c4ccccc4)c4ccccc4)C(C)=C1C3(C)C)[C@]1(OC(C)=O)CO[C@@H]1C[C@@H]2O` [Paclitaxel], for which the “lysosomal-METRIQ red/green fluorescence ratio” value is 1.19.

As for `NC(=O)c1ccc2nc(-c3ccc(Oc4ccc(Cl)cc4)cc3)[nH]c2c1` [Chk2 inhibitor II], the “lysosomal-METRIQ red/green fluorescence ratio” value turned out to be 1.09.

For the molecule `O=C(O)c1ccccc1Nc1ccccc1` [N-phenylanthranilic acid], the “lysosomal-METRIQ red/green fluorescence ratio” value came out at 1.

Take `CCN1/C(=C/C(C)=O)Sc2ccc(OC)cc21`: the “lysosomal-METRIQ red/green fluorescence ratio” value is 1.18.

Consider `C1=Cc2nc1cc1nc(c(-c3ccccc3)c3ccc(cc4ccc([nH]4)c2-c2ccccc2)[nH]3)C=C1`, for which the “lysosomal-METRIQ red/green fluorescence ratio” value worked out at 0.409.

`CC(C)C[C@@H](C=O)NC(=O)[C@H](CC(C)C)NC(=O)[C@H](CC(C)C)NC(=O)OCc1ccccc1`: the “lysosomal-METRIQ red/green fluorescence ratio” value came to 0.467.

Consider `N#CC[C@H](C1CCCC1)n1cc(-c2ncnc3[nH]ccc23)cn1` [Ruxolitinib], for which the “lysosomal-METRIQ red/green fluorescence ratio” value is 1.95.

For the molecule `Fc1ccc(Cl)cc1-c1nc(Nc2ccncc2)c2nccnc2n1`, the “lysosomal-METRIQ red/green fluorescence ratio” value came to 0.955.

In the case of `c1cc(CN2CCCNCCNCCCNCC2)ccc1CN1CCCNCCNCCCNCC1` [AMD3100 octahydrochloride], the “lysosomal-METRIQ red/green fluorescence ratio” value amounted to 1.08.

For `NC(=O)NO` [Hydroxyurea], the “lysosomal-METRIQ red/green fluorescence ratio” value was 1.

Turning to `CCCCCCCCCCCCCCOc1ccc(C(=O)O)o1`, the “lysosomal-METRIQ red/green fluorescence ratio” value was found to be 1.08.

Take `O=Cc1ccc(N2CCOCC2)cc1O`: the “lysosomal-METRIQ red/green fluorescence ratio” value came out at 1.

Regarding `O=C1Cc2c([nH]c3ccc(Br)cc23)-c2ccccc2N1` [Kenpaullone], the “lysosomal-METRIQ red/green fluorescence ratio” value was determined as 1.7 ± 0.42.

Take `CC(C)CC(NC(=O)CNC(=O)OCc1ccccc1)C(=O)NC(Cc1ccccc1)C(=O)CCl` (stereo unspecified): the “lysosomal-METRIQ red/green fluorescence ratio” value was 1.08.

As for `O=C1CCC(N2C(=O)c3ccccc3C2=O)C(=O)N1` (stereo unspecified) [thalidomide], the “lysosomal-METRIQ red/green fluorescence ratio” value is 0.818.

Turning to `NCC(=O)Nc1ccc(-n2nc(C(F)(F)F)cc2-c2ccc3c(ccc4ccccc43)c2)cc1`, the “lysosomal-METRIQ red/green fluorescence ratio” value stood at 1.

For `CC(C)C[C@H](NC(=O)[C@H](Cc1ccccc1)NC(=O)c1cnccn1)B(O)O` [bortezomib], the “lysosomal-METRIQ red/green fluorescence ratio” value worked out at 0.5.

On to `CC[C@]1(O)C[C@@H]2CN(CCc3c([nH]c4ccccc34)[C@@](C(=O)OC)(c3cc4c(cc3OC)N(C)[C@H]3[C@@](O)(C(=O)OC)[C@H](OC(C)=O)[C@]5(CC)C=CCN6CC[C@]43[C@@H]65)C2)C1` [Vinblastine sulfate], for which the “lysosomal-METRIQ red/green fluorescence ratio” value stood at 1.29.

Take `COc1cc(O)c(CC=C(C)C)c(O)c1C(=O)/C=C/c1ccc(O)cc1` [Xanthohumol]: the “lysosomal-METRIQ red/green fluorescence ratio” value was 0.87.

With `CCCCCCCCCCC1=C(C)C(=O)C(OC)=C(OC)C1=O` [Decylubiquinone], the “lysosomal-METRIQ red/green fluorescence ratio” value worked out at 0.957.

Consider `CCOc1nc(NC(=O)Cc2cc(OC)ccc2OC)cc(N)c1C#N` [JNK inhibitor VIII], for which the “lysosomal-METRIQ red/green fluorescence ratio” value was found to be 0.875.

As for `O=c1[nH]c(NCc2ccccc2)nc2nc[nH]c12` [Benzylguanine], the “lysosomal-METRIQ red/green fluorescence ratio” value was determined as 0.87.

Consider `O=S(=O)(c1cccc2cnccc12)N1CCCNCC1`, for which the “lysosomal-METRIQ red/green fluorescence ratio” value is 1.13.

On to `NC1=N/C(=C2/CCNC(=O)c3[nH]ccc32)C(=O)N1` [Debromohymenialdisine (DBH)], for which the “lysosomal-METRIQ red/green fluorescence ratio” value was 1.09.

Consider `Nc1nc2c(nc(Sc3ccc(Cl)cc3)n2C2O[C@@H]3CO[P+](O)(S)OC3[C@@H]2O)c(=O)[nH]1` (stereo partly specified), for which the “lysosomal-METRIQ red/green fluorescence ratio” value came out at 0.947 ± 0.013.

With `N#CCCc1ccc2c(c1)-c1[nH]c3ccc([N+](=O)[O-])cc3c1CC(=O)N2` [Alsterpaullone, 2-cyanoethyl], the “lysosomal-METRIQ red/green fluorescence ratio” value came out at 3.18.

Consider `COc1cc2ncc(-c3ccccc3)nc2cc1OC`, for which the “lysosomal-METRIQ red/green fluorescence ratio” value turned out to be 0.971 ± 0.14.

With `C/C=C/C/C=C/CCC(=O)[C@H]1O[C@H]1C(N)=O` [Cerulenin], the “lysosomal-METRIQ red/green fluorescence ratio” value was determined as 1.17.

With `Cc1nc(Nc2ncc(C(=O)Nc3c(C)cccc3Cl)s2)cc(N2CCN(CCO)CC2)n1` [dasatinib], the “lysosomal-METRIQ red/green fluorescence ratio” value was 1.05.

For the molecule `Nc1[nH]nc2nnc(-c3c(-c4ccccc4)nn4ccccc34)cc12` [ERK inhibitor II], the “lysosomal-METRIQ red/green fluorescence ratio” value was found to be 0.938.

With `CC(C)[C@H](CO)Nc1nc(Nc2cccc(Cl)c2)c2ncn(C(C)C)c2n1` [Purvalanol A], the “lysosomal-METRIQ red/green fluorescence ratio” value worked out at 1.15.

Take `CNC(=O)c1cc(Oc2ccc(NC(=O)Nc3ccc(Cl)c(C(F)(F)F)c3)cc2)ccn1` [sorafenib]: the “lysosomal-METRIQ red/green fluorescence ratio” value amounted to 1.27.

Turning to `Nc1ncn([C@H]2C[C@H](O)[C@@H](CO)O2)c(=O)n1` [Decitabine], the “lysosomal-METRIQ red/green fluorescence ratio” value was 0.864.
